Reference: the supplement of paper PMC10849652
Some of the results follow.

By UniProt entry, the sequences of proteins in these tests, tags left out. Where a name states a change or a piece, a line headed by the entry shows the natural chain unless it says otherwise.
UniProt P07108: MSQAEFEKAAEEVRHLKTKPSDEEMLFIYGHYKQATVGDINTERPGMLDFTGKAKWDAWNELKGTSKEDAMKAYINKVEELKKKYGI
UniProt Q9UHQ9: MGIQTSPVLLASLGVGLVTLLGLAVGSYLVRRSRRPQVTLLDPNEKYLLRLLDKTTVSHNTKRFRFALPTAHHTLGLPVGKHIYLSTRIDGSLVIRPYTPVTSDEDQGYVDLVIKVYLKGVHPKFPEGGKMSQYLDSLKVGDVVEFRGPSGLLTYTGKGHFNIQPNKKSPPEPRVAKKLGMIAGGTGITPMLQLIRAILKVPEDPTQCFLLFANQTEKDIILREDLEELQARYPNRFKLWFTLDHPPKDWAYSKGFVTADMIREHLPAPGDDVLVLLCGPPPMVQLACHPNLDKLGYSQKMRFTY
UniProt Q5TAQ9: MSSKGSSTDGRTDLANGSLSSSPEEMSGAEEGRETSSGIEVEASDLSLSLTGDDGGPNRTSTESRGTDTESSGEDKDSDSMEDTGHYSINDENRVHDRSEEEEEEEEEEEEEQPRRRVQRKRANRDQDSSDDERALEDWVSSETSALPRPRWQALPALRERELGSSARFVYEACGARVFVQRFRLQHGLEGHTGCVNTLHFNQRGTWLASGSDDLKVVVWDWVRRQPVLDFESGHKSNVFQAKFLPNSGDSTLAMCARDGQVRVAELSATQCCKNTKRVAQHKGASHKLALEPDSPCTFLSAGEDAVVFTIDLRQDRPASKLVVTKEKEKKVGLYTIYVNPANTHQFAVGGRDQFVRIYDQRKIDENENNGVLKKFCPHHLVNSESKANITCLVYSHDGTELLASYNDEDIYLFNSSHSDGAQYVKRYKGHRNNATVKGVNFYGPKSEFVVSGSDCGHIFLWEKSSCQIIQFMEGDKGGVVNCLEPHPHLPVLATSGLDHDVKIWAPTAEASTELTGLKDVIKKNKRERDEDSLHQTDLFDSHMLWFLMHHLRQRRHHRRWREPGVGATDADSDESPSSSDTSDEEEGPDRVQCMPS
UniProt Q9BTE1, whole entry, looked up: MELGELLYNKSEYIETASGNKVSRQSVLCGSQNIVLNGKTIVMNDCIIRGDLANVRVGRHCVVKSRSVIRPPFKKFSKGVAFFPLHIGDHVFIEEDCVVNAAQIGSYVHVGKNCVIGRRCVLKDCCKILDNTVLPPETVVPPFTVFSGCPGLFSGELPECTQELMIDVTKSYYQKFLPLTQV
UniProt P00387: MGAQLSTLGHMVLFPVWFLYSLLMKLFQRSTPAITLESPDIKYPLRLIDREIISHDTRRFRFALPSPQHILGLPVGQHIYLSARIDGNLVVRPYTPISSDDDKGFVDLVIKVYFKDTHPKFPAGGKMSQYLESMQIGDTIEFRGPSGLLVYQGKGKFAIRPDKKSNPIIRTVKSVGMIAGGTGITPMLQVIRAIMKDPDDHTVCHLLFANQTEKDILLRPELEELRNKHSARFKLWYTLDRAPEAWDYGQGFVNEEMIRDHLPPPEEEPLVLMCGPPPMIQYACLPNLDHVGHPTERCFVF
UniProt Q8N465: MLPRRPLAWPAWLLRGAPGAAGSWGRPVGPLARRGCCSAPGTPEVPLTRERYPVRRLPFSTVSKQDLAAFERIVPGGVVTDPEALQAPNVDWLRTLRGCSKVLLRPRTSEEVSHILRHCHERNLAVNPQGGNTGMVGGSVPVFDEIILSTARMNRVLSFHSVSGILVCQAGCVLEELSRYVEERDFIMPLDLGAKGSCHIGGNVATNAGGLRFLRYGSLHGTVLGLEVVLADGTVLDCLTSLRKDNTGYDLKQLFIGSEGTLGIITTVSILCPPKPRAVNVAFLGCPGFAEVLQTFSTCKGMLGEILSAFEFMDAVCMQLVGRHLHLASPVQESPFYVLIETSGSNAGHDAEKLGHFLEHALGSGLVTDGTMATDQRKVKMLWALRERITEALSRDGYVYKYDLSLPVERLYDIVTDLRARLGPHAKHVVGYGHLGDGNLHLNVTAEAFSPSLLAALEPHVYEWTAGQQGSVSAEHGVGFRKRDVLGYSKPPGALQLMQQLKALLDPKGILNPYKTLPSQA
UniProt Q05048: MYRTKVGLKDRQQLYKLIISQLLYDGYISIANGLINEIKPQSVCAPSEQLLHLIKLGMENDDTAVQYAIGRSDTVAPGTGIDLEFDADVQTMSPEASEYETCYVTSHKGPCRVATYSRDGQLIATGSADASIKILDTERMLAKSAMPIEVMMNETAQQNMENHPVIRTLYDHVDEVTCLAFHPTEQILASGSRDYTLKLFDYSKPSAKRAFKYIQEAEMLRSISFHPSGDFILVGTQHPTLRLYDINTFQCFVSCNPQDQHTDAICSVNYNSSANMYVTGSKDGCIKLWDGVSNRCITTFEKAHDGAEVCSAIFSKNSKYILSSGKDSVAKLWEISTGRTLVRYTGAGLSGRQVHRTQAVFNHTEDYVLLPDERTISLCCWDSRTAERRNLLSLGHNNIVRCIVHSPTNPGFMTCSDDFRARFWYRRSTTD
UniProt P21291: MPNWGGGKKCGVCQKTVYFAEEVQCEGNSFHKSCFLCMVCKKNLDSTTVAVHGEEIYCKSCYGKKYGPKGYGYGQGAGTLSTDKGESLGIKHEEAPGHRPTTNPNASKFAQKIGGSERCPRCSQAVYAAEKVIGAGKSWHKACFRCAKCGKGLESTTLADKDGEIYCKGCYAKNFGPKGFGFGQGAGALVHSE
UniProt P61803: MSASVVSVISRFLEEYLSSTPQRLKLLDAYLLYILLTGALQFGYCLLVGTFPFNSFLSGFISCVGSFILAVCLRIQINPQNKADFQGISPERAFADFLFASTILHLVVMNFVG
UniProt P01034: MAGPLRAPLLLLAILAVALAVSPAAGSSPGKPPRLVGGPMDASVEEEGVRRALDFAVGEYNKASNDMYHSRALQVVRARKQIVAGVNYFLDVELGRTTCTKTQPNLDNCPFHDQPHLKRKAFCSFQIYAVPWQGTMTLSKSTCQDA
UniProt O43310: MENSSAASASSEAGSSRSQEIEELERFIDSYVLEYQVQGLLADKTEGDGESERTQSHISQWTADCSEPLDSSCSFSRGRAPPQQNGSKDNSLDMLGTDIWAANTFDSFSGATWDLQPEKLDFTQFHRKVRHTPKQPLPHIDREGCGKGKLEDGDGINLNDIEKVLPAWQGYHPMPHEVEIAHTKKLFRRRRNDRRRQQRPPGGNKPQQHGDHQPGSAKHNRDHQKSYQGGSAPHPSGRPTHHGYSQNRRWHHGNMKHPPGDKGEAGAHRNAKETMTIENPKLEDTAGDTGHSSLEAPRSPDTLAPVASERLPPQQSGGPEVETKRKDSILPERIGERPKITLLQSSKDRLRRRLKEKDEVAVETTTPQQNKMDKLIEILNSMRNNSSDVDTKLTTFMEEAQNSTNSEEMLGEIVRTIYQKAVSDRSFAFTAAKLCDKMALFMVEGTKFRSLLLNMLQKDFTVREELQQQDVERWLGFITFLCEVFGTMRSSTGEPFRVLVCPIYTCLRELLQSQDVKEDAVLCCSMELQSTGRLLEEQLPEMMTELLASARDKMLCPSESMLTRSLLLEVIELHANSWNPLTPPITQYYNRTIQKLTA
UniProt Q9NRF8: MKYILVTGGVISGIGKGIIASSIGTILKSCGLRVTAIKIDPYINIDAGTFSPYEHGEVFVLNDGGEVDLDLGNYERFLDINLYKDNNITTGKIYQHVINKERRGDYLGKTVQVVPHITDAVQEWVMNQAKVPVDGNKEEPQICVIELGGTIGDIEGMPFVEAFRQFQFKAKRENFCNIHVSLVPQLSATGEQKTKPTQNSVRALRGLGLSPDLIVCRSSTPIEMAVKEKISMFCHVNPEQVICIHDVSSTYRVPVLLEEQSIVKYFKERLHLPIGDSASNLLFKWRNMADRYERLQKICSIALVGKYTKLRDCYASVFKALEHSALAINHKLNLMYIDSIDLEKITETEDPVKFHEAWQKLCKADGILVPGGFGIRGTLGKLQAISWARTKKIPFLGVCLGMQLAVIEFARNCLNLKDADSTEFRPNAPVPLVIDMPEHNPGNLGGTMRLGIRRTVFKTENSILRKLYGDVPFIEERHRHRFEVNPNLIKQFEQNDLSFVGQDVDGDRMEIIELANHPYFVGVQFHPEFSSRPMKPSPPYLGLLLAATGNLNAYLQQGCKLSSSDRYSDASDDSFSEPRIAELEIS
UniProt Q9UJW0, whole entry, looked up: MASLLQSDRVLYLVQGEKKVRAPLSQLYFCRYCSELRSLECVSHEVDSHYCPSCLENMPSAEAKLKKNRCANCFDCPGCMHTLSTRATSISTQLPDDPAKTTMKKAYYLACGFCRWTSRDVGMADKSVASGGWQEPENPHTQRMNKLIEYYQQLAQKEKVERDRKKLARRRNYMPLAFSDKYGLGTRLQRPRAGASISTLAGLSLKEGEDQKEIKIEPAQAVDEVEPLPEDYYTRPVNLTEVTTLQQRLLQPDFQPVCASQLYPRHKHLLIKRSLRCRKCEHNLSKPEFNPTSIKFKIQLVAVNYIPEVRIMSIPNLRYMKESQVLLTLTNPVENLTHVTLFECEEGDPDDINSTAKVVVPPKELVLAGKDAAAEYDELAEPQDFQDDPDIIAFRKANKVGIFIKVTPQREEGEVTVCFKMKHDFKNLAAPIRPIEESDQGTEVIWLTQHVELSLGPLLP
UniProt Q13619, whole entry, looked up: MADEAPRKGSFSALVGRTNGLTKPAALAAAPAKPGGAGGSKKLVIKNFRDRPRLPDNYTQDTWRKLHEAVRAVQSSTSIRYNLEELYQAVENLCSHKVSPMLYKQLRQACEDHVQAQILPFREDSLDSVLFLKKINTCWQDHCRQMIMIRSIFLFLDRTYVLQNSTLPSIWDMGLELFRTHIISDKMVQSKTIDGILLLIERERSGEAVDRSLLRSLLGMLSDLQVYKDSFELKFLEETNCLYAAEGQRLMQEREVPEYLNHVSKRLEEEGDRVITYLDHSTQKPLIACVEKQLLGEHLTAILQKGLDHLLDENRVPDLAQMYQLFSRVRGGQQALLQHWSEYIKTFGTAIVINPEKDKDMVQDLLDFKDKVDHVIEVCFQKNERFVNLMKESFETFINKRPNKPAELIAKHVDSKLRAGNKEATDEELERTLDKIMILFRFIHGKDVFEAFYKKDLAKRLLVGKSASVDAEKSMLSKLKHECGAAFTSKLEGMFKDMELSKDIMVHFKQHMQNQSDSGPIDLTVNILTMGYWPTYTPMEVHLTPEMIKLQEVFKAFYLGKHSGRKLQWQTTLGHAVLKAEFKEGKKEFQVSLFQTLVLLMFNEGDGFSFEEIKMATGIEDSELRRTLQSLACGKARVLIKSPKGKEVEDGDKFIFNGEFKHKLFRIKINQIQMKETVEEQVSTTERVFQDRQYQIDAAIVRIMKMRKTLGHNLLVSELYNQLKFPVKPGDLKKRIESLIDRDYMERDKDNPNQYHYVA
UniProt Q9H1C7: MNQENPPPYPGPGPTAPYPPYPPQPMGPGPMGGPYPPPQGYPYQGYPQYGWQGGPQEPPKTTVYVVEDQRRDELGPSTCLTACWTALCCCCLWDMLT

Experiments:
Experiment in all cases: log2 fold change, soluble protein after heating vs DMSO (PISA); higher = thermal stabilisation; K562 cells, 10 uM, 30 min; active = over 0.2 and 3.5 SD of the protein, either way, in both replicates (recomputed)
saracatinib = compound: CN1CCN(CCOc2cc(OC3CCOCC3)c3c(Nc4c(Cl)ccc5c4OCO5)ncnc3c2)CC1 [saracatinib]
Procedure, shortened: (§1)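 K562 cells at 2×10^6 cells/mL were given 10 μM compound for 30 min. Aliquots then went through 3 min of heating across 48°C-58°C, were pooled, and were extracted in PBS with 0.5% NP-40 at 4°C, and the supernatant after 21,000xg for 90 min was quantified by TMTpro 16plex LC-MS/MS with channel sums equalised. Thermal stability relative to control samples, from duplicates, is given as log2 fold change.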

sotrastaurin = compound: CN1CCN(c2nc(C3=C(c4c[nH]c5ccccc45)C(=O)NC3=O)c3ccccc3n2)CC1 [sotrastaurin]
Procedure, shortened: as §1

alvocidib = compound: CN1CC[C@H](c2c(O)cc(O)c3c(=O)cc(-c4ccccc4Cl)oc23)[C@H](O)C1 [alvocidib]
Procedure, shortened: as §1

Tubastatin A = compound: CN1CCc2c(c3ccccc3n2Cc2ccc(C(=O)NO)cc2)C1 [Tubastatin A]
Procedure, shortened: as §1

[1] = compound: CNC(=O)C1=CC=CC=C1NC2=NC(=NC=C2Cl)NC3=C(C=C(C=C3)N4CCOCC4)OC
Procedure, shortened: as §1

defactinib = compound: CNC(=O)c1ccc(Nc2ncc(C(F)(F)F)c(NCc3nccnc3N(C)S(C)(=O)=O)n2)cc1 [defactinib]
Procedure, shortened: as §1

rucaparib = compound: CNCc1ccc(-c2[nH]c3cc(F)cc4c3c2CCNC4=O)cc1 [rucaparib]
Procedure, shortened: as §1

[2] = compound: CNc1nc(-c2ccc3c(N)n[nH]c3c2)cc(N2C[C@@H](C(=O)NC3CCCCC3)CC[C@H]2C)n1
Procedure, shortened: as §1

encorafenib = compound: COC(=O)N[C@@H](C)CNc1nccc(-c2cn(C(C)C)nc2-c2cc(Cl)cc(NS(C)(=O)=O)c2F)n1 [encorafenib]
Procedure, shortened: as §1

[3] = compound: COC(=O)[C@H](CCSC)NC(=O)C1=C(C=C(C=C1)NC[C@H](CS)N)C2=CC=CC=C2
Procedure, shortened: as §1

[4] = compound: COC1=CC=C(C=C1)CN2C=CC3=C2C=C(C=C3)C(=O)NO
Procedure, shortened: as §1

filanesib = compound: CON(C)C(=O)N1N=C(c2cc(F)ccc2F)S[C@@]1(CCCN)c1ccccc1 [filanesib]
Procedure, shortened: as §1

zotarolimus = compound: CO[C@H]1C[C@@H]2CC[C@@H](C)[C@@](O)(O2)C(=O)C(=O)N2CCCC[C@H]2C(=O)O[C@H]([C@H](C)C[C@@H]2CC[C@H](n3cnnn3)[C@H](OC)C2)CC(=O)[C@H](C)/C=C(\C)[C@@H](O)[C@@H](OC)C(=O)[C@H](C)C[C@H](C)/C=C/C=C/C=C/1C [zotarolimus]
Procedure, shortened: as §1

idasanutlin = compound: COc1cc(C(=O)O)ccc1NC(=O)[C@@H]1N[C@@H](CC(C)(C)C)[C@](C#N)(c2ccc(Cl)cc2F)[C@H]1c1cccc(Cl)c1F [idasanutlin]
Procedure, shortened: as §1

alisertib = compound: COc1cc(Nc2ncc3c(n2)-c2ccc(Cl)cc2C(c2c(F)cccc2OC)=NC3)ccc1C(=O)O [alisertib]
Procedure, shortened: as §1

[5] = compound: COc1cc2nc(-c3cc(F)ccc3O)nc(N[C@@H]3CNC[C@H]3C(C)(C)O)c2cc1OC
Procedure, shortened: as §1

gefitinib = compound: COc1cc2ncnc(Nc3ccc(F)c(Cl)c3)c2cc1OCCCN1CCOCC1 [gefitinib]
Procedure, shortened: as §1

[6] = compound: COc1cccc2cc(-c3nc([C@H]4CC[C@H](C(=O)O)CC4)n4ncnc(N)c34)[nH]c12
Procedure, shortened: as §1

lapatinib = compound: CS(=O)(=O)CCNCc1ccc(-c2ccc3ncnc(Nc4ccc(OCc5cccc(F)c5)c(Cl)c4)c3c2)o1 [lapatinib]
Procedure, shortened: as §1

pictilisib = compound: CS(=O)(=O)N1CCN(Cc2cc3nc(-c4cccc5[nH]ncc45)nc(N4CCOCC4)c3s2)CC1 [pictilisib]
Procedure, shortened: as §1

Measured: log2 fold change

CXorf56 (UniProt Q9H5V9)
inactive: saracatinib 0.051 | sotrastaurin -0.004 | alvocidib 0.029 | Tubastatin A 0.072 | [1] -0.01 | defactinib 0.011 | rucaparib 0.015 | [2] -0.179 | encorafenib 0.038 | [3] 0 | [4] 0.01 | filanesib 0.012 | zotarolimus -0.009 | idasanutlin 0.008 | alisertib 0.022 | [5] 0.063 | gefitinib 0.032 | [6] -0.038 | lapatinib 0.006 | pictilisib -0.045

DBI isoform 5 (UniProt P07108)
inactive: saracatinib -0.051 | sotrastaurin 0.05 | alvocidib -0.032 | Tubastatin A 0.033 | [1] -0.005 | defactinib -0.076 | rucaparib -0.014 | [2] 0.04 | encorafenib -0.027 | [3] 0.057 | [4] -0.043 | filanesib 0.007 | zotarolimus 0.058 | idasanutlin 0.069 | alisertib -0.038 | [5] -0.129 | gefitinib 0.004 | [6] 0.063 | lapatinib -0.081 | pictilisib 0.079

CYB5R1 (UniProt Q9UHQ9)
inactive: saracatinib 0.032 | sotrastaurin 0.062 | alvocidib 0.032 | Tubastatin A -0.009 | [1] -0.051 | defactinib 0 | rucaparib 0.008 | [2] -0.05 | encorafenib -0.038 | [3] 0 | [4] -0.018 | filanesib -0.033 | zotarolimus -0.029 | idasanutlin -0.053 | alisertib -0.016 | [5] -0.003 | gefitinib 0.003 | [6] 0.065 | lapatinib -0.023 | pictilisib 0.12

DCAF8 (UniProt Q5TAQ9)
inactive: saracatinib 0.019 | sotrastaurin 0.001 | alvocidib -0.053 | Tubastatin A 0 | [1] 0.001 | defactinib -0.085 | rucaparib 0.024 | [2] -0.018 | encorafenib 0.01 | [3] 0.055 | [4] -0.043 | filanesib 0.006 | zotarolimus 0.034 | idasanutlin 0 | alisertib -0.049 | [5] -0.004 | gefitinib -0.027 | [6] 0.011 | lapatinib 0.019 | pictilisib 0.062

DCTN5 (UniProt Q9BTE1)
inactive: saracatinib 0.015 | sotrastaurin -0.008 | alvocidib 0.035 | Tubastatin A 0.018 | [1] -0.006 | defactinib 0.034 | rucaparib 0.031 | [2] -0.035 | encorafenib -0.115 | [3] 0.017 | [4] -0.098 | filanesib 0 | zotarolimus 0.032 | idasanutlin 0.008 | alisertib -0.018 | [5] 0.002 | gefitinib -0.012 | [6] 0.038 | lapatinib 0.003 | pictilisib 0.008

CYB5R3 isoform 3 (UniProt P00387)
inactive: saracatinib 0.005 | sotrastaurin 0.052 | alvocidib -0.004 | Tubastatin A -0.011 | [1] 0.122 | defactinib 0.015 | rucaparib -0.037 | [2] -0.015 | encorafenib -0.026 | [3] 0.028 | [4] -0.037 | filanesib -0.032 | zotarolimus -0.036 | idasanutlin -0.058 | alisertib -0.021 | [5] 0.042 | gefitinib 0.011 | [6] 0.05 | lapatinib -0.048 | pictilisib 0.04

D2HGDH (UniProt Q8N465)
inactive: saracatinib -0.042 | sotrastaurin 0.089 | alvocidib 0.112 | Tubastatin A -0.071 | [1] -0.019 | defactinib 0.024 | rucaparib 0.036 | [2] 0.025 | encorafenib -0.065 | [3] -0.018 | [4] -0.1 | filanesib -0.081 | zotarolimus -0.069 | idasanutlin 0.025 | alisertib -0.1 | [5] 0.061 | gefitinib 0.045 | [6] 0.018 | lapatinib 0.009 | pictilisib -0.044

CSTF1 (UniProt Q05048)
inactive: saracatinib -0.008 | sotrastaurin 0.041 | alvocidib 0.016 | Tubastatin A -0.031 | [1] 0.012 | defactinib 0.133 | rucaparib 0.028 | [2] -0.019 | encorafenib -0.009 | [3] 0.019 | [4] 0.118 | filanesib 0.003 | zotarolimus -0.005 | idasanutlin -0.058 | alisertib -0.027 | [5] 0.054 | gefitinib -0.027 | [6] -0.02 | lapatinib 0.026 | pictilisib 0.028

CSRP1 (UniProt P21291)
inactive: saracatinib 0.047 | sotrastaurin 0.036 | alvocidib -0.006 | Tubastatin A -0.055 | [1] -0.042 | defactinib 0.007 | rucaparib -0.038 | [2] -0.031 | encorafenib -0.033 | [3] 0.014 | [4] 0.09 | filanesib -0.027 | zotarolimus -0.002 | idasanutlin 0.027 | alisertib -0.035 | [5] -0.019 | gefitinib 0.017 | [6] 0.01 | lapatinib -0.007 | pictilisib -0.02

DAD1 (UniProt P61803)
inactive: saracatinib 0.042 | sotrastaurin 0.025 | alvocidib 0.064 | Tubastatin A -0.075 | [1] -0.046 | defactinib -0.119 | rucaparib -0.031 | [2] -0.217 | encorafenib -0.085 | [3] 0.167 | [4] 0.057 | filanesib -0.042 | zotarolimus -0.147 | idasanutlin 0.088 | alisertib 0.026 | [5] 0.012 | gefitinib 0.061 | [6] -0.193 | lapatinib -0.058

CST3 (UniProt P01034)
inactive: saracatinib 0.094 | sotrastaurin 0.008 | alvocidib -0.028 | Tubastatin A -0.006 | [1] 0.147 | defactinib -0.007 | rucaparib -0.005 | [2] 0.024 | encorafenib -0.063 | [3] 0.061 | [4] -0.003 | filanesib 0.103 | zotarolimus 0.01 | idasanutlin -0.015 | alisertib -0.021 | [5] 0.069 | gefitinib 0.094 | [6] 0.022 | lapatinib -0.006 | pictilisib 0.103

CTIF isoform 2 (UniProt O43310)
inactive: saracatinib 0.031 | sotrastaurin 0.105 | alvocidib 0.066 | Tubastatin A -0.066 | [1] 0.013 | defactinib -0.002 | rucaparib -0.06 | [2] -0.034 | encorafenib 0.1 | [3] 0.083 | [4] -0.105 | filanesib -0.096 | zotarolimus -0.02 | idasanutlin 0.024 | alisertib 0.1 | [5] 0.059 | gefitinib -0.023 | [6] 0.122 | lapatinib 0.014 | pictilisib -0.041

CTPS2 (UniProt Q9NRF8)
inactive: saracatinib 0.053 | sotrastaurin 0.093 | alvocidib -0.014 | Tubastatin A -0.028 | [1] -0.022 | defactinib -0.003 | rucaparib -0.059 | [2] -0.026 | encorafenib -0.008 | [3] 0.01 | [4] 0.027 | filanesib 0 | zotarolimus 0.015 | idasanutlin -0.016 | alisertib -0.019 | [5] 0.001 | gefitinib 0.003 | [6] 0.071 | lapatinib 0.024 | pictilisib -0.006

DCTN4 (UniProt Q9UJW0)
inactive: saracatinib 0.022 | sotrastaurin 0.065 | alvocidib -0.012 | Tubastatin A -0.007 | [1] 0.004 | defactinib -0.037 | rucaparib 0.014 | [2] -0.014 | encorafenib -0.005 | [3] 0.023 | [4] 0.002 | filanesib -0.022 | zotarolimus 0 | idasanutlin 0.007 | alisertib -0.046 | [5] -0.005 | gefitinib 0.007 | [6] -0.007 | lapatinib 0.058 | pictilisib -0.059

Copied from the listing (four entries):
DAD1 (UniProt P61803)
inactive: saracatinib 0.042 | sotrastaurin 0.025 | alvocidib 0.064 | Tubastatin A -0.075 | [1] -0.046 | defactinib -0.119 | rucaparib -0.031 | [2] -0.217 | encorafenib -0.085 | [3] 0.167 | [4] 0.057 | filanesib -0.042 | zotarolimus -0.147 | idasanutlin 0.088 | alisertib 0.026 | [5] 0.012 | gefitinib 0.061 | [6] -0.193 | lapatinib -0.058

CST3 (UniProt P01034)
inactive: saracatinib 0.094 | sotrastaurin 0.008 | alvocidib -0.028 | Tubastatin A -0.006 | [1] 0.147 | defactinib -0.007 | rucaparib -0.005 | [2] 0.024 | encorafenib -0.063 | [3] 0.061 | [4] -0.003 | filanesib 0.103 | zotarolimus 0.01 | idasanutlin -0.015 | alisertib -0.021 | [5] 0.069 | gefitinib 0.094 | [6] 0.022 | lapatinib -0.006 | pictilisib 0.103

CTIF isoform 2 (UniProt O43310)
inactive: saracatinib 0.031 | sotrastaurin 0.105 | alvocidib 0.066 | Tubastatin A -0.066 | [1] 0.013 | defactinib -0.002 | rucaparib -0.06 | [2] -0.034 | encorafenib 0.1 | [3] 0.083 | [4] -0.105 | filanesib -0.096 | zotarolimus -0.02 | idasanutlin 0.024 | alisertib 0.1 | [5] 0.059 | gefitinib -0.023 | [6] 0.122 | lapatinib 0.014 | pictilisib -0.041

CTPS2 (UniProt Q9NRF8)
inactive: saracatinib 0.053 | sotrastaurin 0.093 | alvocidib -0.014 | Tubastatin A -0.028 | [1] -0.022 | defactinib -0.003 | rucaparib -0.059 | [2] -0.026 | encorafenib -0.008 | [3] 0.01 | [4] 0.027 | filanesib 0 | zotarolimus 0.015 | idasanutlin -0.016 | alisertib -0.019 | [5] 0.001 | gefitinib 0.003 | [6] 0.071 | lapatinib 0.024 | pictilisib -0.006

Next entries.

CUL4A (UniProt Q13619)
inactive: saracatinib -0.011 | sotrastaurin -0.008 | alvocidib -0.063 | Tubastatin A -0.013 | [1] 0.004 | defactinib -0.08 | rucaparib -0.021 | [2] -0.01 | encorafenib 0.044 | [3] 0.007 | [4] 0.088 | filanesib -0.028 | zotarolimus 0.014 | idasanutlin -0.054 | alisertib -0.04 | [5] 0.029 | gefitinib -0.016 | [6] 0.032 | lapatinib -0.023 | pictilisib 0.029

CYSTM1 (UniProt Q9H1C7)
inactive: saracatinib 0.071 | sotrastaurin -0.031 | alvocidib 0.051 | Tubastatin A -0.033 | [1] -0.019 | defactinib -0.008 | rucaparib 0.116 | [2] -0.144 | encorafenib -0.038 | [3] 0.12 | [4] 0.047 | filanesib -0.005 | zotarolimus -0.15 | idasanutlin 0.231 | alisertib 0.05 | [5] -0.085 | gefitinib 0.115 | [6] 0 | lapatinib -0.066
